This note sets out measurements from patent US5461035A (priority 1990, dated 1995).

HELM strings list residues between dots; [ac] is acetyl, [am] amide, other brackets name non-standard units. *: point of attachment. Trt = c1ccc(C(c2ccccc2)(c2ccccc2)*)cc1; Fmoc = O=C(OCC1c2ccccc2-c2ccccc21)*; OtBu = CC(C)(C)O*; tBu = CC(C)(C)* Bounds are passed on as bounds.

A short description of this data set: general procedure: solution-phase peptide synthesis; DCC/HOBt.

The substance PEPTIDE1{[ac].L.E.N.Y.C.N}$$$$V2.0 had a step yield (late stage modification step) of 87%.
For the setting “coupling step”, “Ddz-Tyr(Bu^t)-Gln-Leu-Glu(OBu^t)-Asn-Tyr(Bu^t)-Cys(Trt)-Asn-OBu^t” showed a step yield of 76.8%.
Still for that read-out and setting: with Fmoc-NY(tBu)C(Trt)N-OtBu the figure was 63%.
With Ac-LE(OtBu)NY(tBu)C(Trt)N-OtBu, under “late stage modification step”, the step yield is >100%.
With H-NY(tBu)C(Trt)N-OtBu, the step yield (late stage modification step) turned out to be 65%.
For the setting “late stage modification step”, H-Asn-Tyr-Cys-Asn-OH (SEQ ID No. 3) had a step yield of 89%.
